# PubChem BioAssay AID652243 | Drosophila RNAi Screening Center, 2013
# Aim: 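Knock-downs that decrease or increase androgen receptor reporter signal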 (primary screen)
# Cell system: Drosophila S2R+ cells
# Reagent: long dsRNA against Drosophila genes
# Duration: 72 h (48 h, then 24 h hormone)
# Treatment: synthetic androgen R1881 at 10 nM for 24 h
# Measured: 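Per-well raw luminescence of the androgen-driven firefly reporter and of the Renilla control, two replicates each, without normalisation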
# Scale: firefly reporter light: higher = more light from androgen-responsive reporter; Renilla control light: higher = more constitutive control signal (cell number, transfection)
# Call rule: 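Across duplicate plates, a knock-down whose log firefly/Renilla ratio shifted a set fold down or up from the GFP/LacZ control mean was a hit; the downward cut appears as both 1.5 and 3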
# Calls: active = hit: reporter lowered or raised; inactive = no hit
# The screen tested about 24,000 reagents; this is a random part of those that have a named target and a result. Of all reagents, 246 (1%) got an active call. 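Plates not normalised; calls are printed but the firefly/Renilla ratio behind them is not deposited; fold cut for lowering reported inconsistently.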 Raw values are not corrected between plates. Names joined by + are all predicted targets of the reagent. Not stated in the record: the amount of reagent.
gene,DRSC id,"firefly reporter light, replicate 1","firefly reporter light, replicate 2","Renilla control light, replicate 1","Renilla control light, replicate 2",activity call
dl,DRSC03521,2.22e5,1.85e5,2.11e6,2.33e6,inactive
dl,DRSC29023,3.81e5,3.72e5,1.04e6,9.47e5,inactive
tej,DRSC07219,72129,75516,1.19e6,1.19e6,inactive
tej,DRSC24278,1.37e6,1.35e6,1.20e6,1.28e6,inactive
IscU,DRSC16572,1.34e5,1.22e5,2.67e6,2.05e6,inactive
Srg1,DRSC14640,1.78e5,2.23e5,2.14e6,2.00e6,inactive
Srg1,DRSC29445,5.71e5,6.80e5,1.07e6,1.07e6,inactive
Dip-C,DRSC15855,44751,1.52e5,3.86e5,7.80e5,inactive
CG15093,DRSC06522,3.80e5,2.74e5,5.57e5,4.20e5,inactive
CG15093,DRSC24576,8.00e5,8.11e5,7.88e5,7.83e5,inactive
CG14960,DRSC08419,60116,54990,6.75e5,5.63e5,inactive
CG15912,DRSC18105,2.35e5,5.07e5,4.26e6,3.47e6,inactive
CG15912,DRSC28275,2.85e5,5.46e5,9.44e5,1.34e6,inactive
Or46a + asRNA:CR43467,DRSC07489,3.57e5,2.69e5,2.58e6,2.41e6,inactive
Or46a + asRNA:CR43467,DRSC07490,1.51e5,1.12e5,1.10e6,9.06e5,inactive
Or46a + asRNA:CR43467,DRSC21590,4.78e5,4.85e5,2.58e6,2.66e6,inactive
Or46a + asRNA:CR43467,DRSC29654,3.49e5,3.25e5,7.59e5,7.59e5,inactive
CG34281,DRSC14807,2.71e5,2.36e5,2.87e6,2.81e6,inactive
CG34281,DRSC30111,8.64e5,7.35e5,1.16e6,9.96e5,inactive
CG33098,DRSC22903,6.51e5,1.13e6,9.37e5,1.59e6,inactive
CG33159,DRSC08199,4.21e5,5.44e5,3.44e6,4.27e6,inactive
CG33937 (retired record),DRSC15148,1.64e5,2.10e5,3.29e6,3.02e6,inactive
CR41604 (retired record),DRSC38594,1.01e6,8.16e5,1.74e6,2.24e6,inactive
ITP,DRSC04222,2.63e5,3.72e5,1.65e6,1.78e6,inactive
CG4592,DRSC02761,6.38e5,5.28e5,2.25e6,2.26e6,inactive
Atet,DRSC00263,92503,94009,8.47e5,6.10e5,inactive
path,DRSC10361,2.05e5,1.58e5,2.39e6,2.02e6,inactive

Ordered by “firefly reporter light, replicate 2” (highest first): some entries from above
gene,DRSC id,"firefly reporter light, replicate 1","firefly reporter light, replicate 2","Renilla control light, replicate 1","Renilla control light, replicate 2",activity call
tej,DRSC24278,1.37e6,1.35e6,1.20e6,1.28e6,inactive
Srg1,DRSC29445,5.71e5,6.80e5,1.07e6,1.07e6,inactive
CG15093,DRSC06522,3.80e5,2.74e5,5.57e5,4.20e5,inactive
Srg1,DRSC14640,1.78e5,2.23e5,2.14e6,2.00e6,inactive
Dip-C,DRSC15855,44751,1.52e5,3.86e5,7.80e5,inactive
IscU,DRSC16572,1.34e5,1.22e5,2.67e6,2.05e6,inactive

More records follow:
gene,DRSC id,"firefly reporter light, replicate 1","firefly reporter light, replicate 2","Renilla control light, replicate 1","Renilla control light, replicate 2",activity call
Ilp2,DRSC10968,1.10e6,9.68e5,9.22e5,1.12e6,inactive
Ilp2,DRSC29688,6.80e5,6.24e5,1.80e6,1.73e6,inactive
Cyt-c-p,DRSC03310,1.19e5,1.43e5,1.85e6,2.02e6,inactive
RpL12,DRSC04344,3.52e5,3.10e5,1.31e6,1.31e6,inactive
BomS4,DRSC22509,5.36e5,7.97e5,1.47e6,2.44e6,inactive
Dnah3,DRSC08130,2.88e5,3.12e5,3.79e5,3.06e5,inactive
Dnah3,DRSC08513,1.25e5,1.67e5,1.49e6,1.76e6,inactive
Dnah3,DRSC28789,3.29e5,3.50e5,9.52e5,1.10e6,inactive
LysD + LysB + LysC (retired record),DRSC21249,1.06e5,1.41e5,2.51e5,2.53e5,inactive
FASN2,DRSC00167,3.40e5,2.93e5,7.71e5,6.27e5,inactive
FASN2,DRSC00610,8.98e5,7.76e5,2.18e6,1.51e6,inactive
dbe,DRSC00811,6.85e5,1.03e6,1.64e6,1.80e6,inactive
mnb,DRSC20353,4.59e5,5.17e5,3.94e6,3.10e6,inactive
mnb,DRSC23347,1.05e6,9.22e5,8.63e5,9.99e5,inactive
mnb,DRSC24961,6.06e5,6.74e5,5.85e5,6.45e5,inactive
mnb,DRSC28430,2.12e5,3.46e5,5.46e5,8.83e5,inactive
